Experimental data: patent EP0643964A2 (priority 1993, dated 1995)
At least one compound was matched to its structure with a doubt left.

Tested on: herpes zoster
Assay: Herpes zoster infection in patients
Assay type: in vivo, human
Conditions: PATIENT B, topical, on top of i.v. lidocaine
From the text: PATIENT A: who presented a grade II vesical transitional carcinoma that was endoscopically resected. 60 days after resection they presented their first herpetic episode in chest, of 10 days of evolution. 175 days later, a second episode was presented, beginning with hyper and parastesy in the affected area and sudden appearance of vesicles.
PATIENT B: without any apparent disease. 20 and 12 months before they presented two episodes of herpes zoster in the right submammary area, of high intensity, with exquisite pain that made impossible contact with clothes, each episode lasting 3 weeks. At the present time, the patient presented their third episode, preceded by fever (during 48 hours), with crusted vesicles, some of them impetiginized.
PATIENT C: with a breast cancer, under chemo and hormone therapy. After each chemotherapy schedule received, they developed an herpetic episode in the left leg.

CN(C)[C@@H]1C(O)=C(C(N)=O)C(=O)[C@@]2(O)C(O)=C3C(=O)c4c(O)cccc4[C@@](C)(O)[C@H]3[C@H](O)[C@@H]12 [oxytetracycline]
Evolution of impetiginized lesions: evolution similar to those non treated
